Some entries share one result that the patent states for a list of compounds.
test system: RSV 5-helix bundle; assay: Competition fluorescence polarization assay (FPA) against FITC-RSV HR2 (488-522); assay type: binding, Respiratory Syncytial Virus (RSV); conditions: compared to unmodified peptide
Procedure: To assess binding activity toward the RSV fusogenic bundle, competition FPA was performed using recombinant five-helix bundle protein, fluorescent HR2 peptide (488-522), and serial dilutions of SAHF peptides shown in Table 2. More specifically, a 5-helix bundle protein was designed containing five of the six helices that comprise the core of the RSV-F trimer of hairpins, connected by short peptide linkers in accordance with the design of the gp41 5-helix bundle (Root et al., Science, 291:884-888, 2001). Because the 5-helix bundle lacks the third HR2 helix but is otherwise soluble, stable, and helical, incorporation of the sixth HR2 peptide in the form of FITC-RSV (488-522) yielded a stable complex, which can be competed with acetylated SAH-RSV peptides to gauge relative binding affinity.
FPA assays were used to measure and compare the relative binding activities of distinct SAHF constructs for the RSV fusion bundle. First, FITC-RSV HR2 peptide (488-522) is mixed with a serial dilution of recombinant 5-helix bundle protein to generate a binding isotherm. A fixed concentration of FITC-peptide and protein at ˜EC75 was then incubated with a serial dilution of acetylated SAHF peptide to generate competition curves for comparative analysis. Fluorescence polarization (mP units) was measured on a SpectraMax fluorimeter and IC50 values calculated by nonlinear regression analysis of competition curves using Prism software (Graphpad).

Question: For “FDASISQVNEKINQSLAFIR8SDELLHXVNAGKST [SAHF-K]”, which “enhancement in competitive binding activity” value (“enhancement” below) is on record?
Answer: Its value is “up to 5 fold”.

Question: With “FDA8ISQVNEXINQSLAFIR8SDELLHXVNAGKST [SAHF-I, K]” as the substance, how does the “enhancement” value read?
Answer: Its value is “up to 5 fold”.

Question: Which “enhancement” value does the source give for “FD8SISQVNXKINQSLAFIRKSDELLHNVNAGKST [SAHF-H]” here?
Answer: Its value is “up to 5 fold”.

Question: With “FDA8ISQVNEXINQSLAFI8KSDELLXNVNAGKST [SAHF-I, J]” as the substance, how does the “enhancement” value read?
Answer: Its value is “up to 5 fold”.

Question: With “FDASISQVNEKINQSLAFIRKSD8LLHNVNXGKST [SAHF-N]” as the substance, how does the “enhancement” value read?
Answer: The value was “up to 5 fold”.

Question: “F8ASISQVXEKINQSLAFI8KSDELLXNVNAGKST [SAHF-G, J]” was tested. Which “enhancement” value did it give?
Answer: The value was “up to 5 fold”.

Question: For “FDA8SQVVNEXINQSLAFIRKSDELLHNVNAGKST [SAHF-I]”, which “enhancement” value is on record?
Answer: Its value is “up to 5 fold”.

Question: With “FDASISQVNEKINQSLAFI8KSDELLXNVNAGKST [SAHF-J]” as the substance, how does the “enhancement” value read?
Answer: Its value is “up to 5 fold”.

Question: With “F8ASISQVXEKINQSLAFIRKSDELLHNVNAGKST [SAHF-G]” as the substance, how does the “enhancement” value read?
Answer: Its value is “up to 5 fold”.

Question: Which “enhancement” value does the source give for “FD8SISQVNXKINQSLAFI8KSDELLXNVNAGKST [SAHF-H, J]” here?
Answer: Its value is “up to 5 fold”.

From patent US10077290B2, “Stabilized antiviral fusion helices” (priority 2011, dated 2018)
